Entries after “also recorded” stand apart in the source; their conditions may differ.
Tested on: CT (control hiPS-CMs without RA, ventricular-like)
Assay: High-throughput membrane potential recording (FluoVolt, FDSS/μCell) in CT
Type: cell-based, human
Procedure: Using a high-throughput screening system (FDSS/μCell), we assessed the drug toxicity of several experimental drugs on hiPS-derived atrial myocytes as well as control hiPS-derived cardiomyocytes. Membrane potential was used as one of the parameters during the assessment.
After purification, hiPS-derived cardiomyocytes were plated in 96-well plates for downstream drug response assessment using FluoVolt™ Membrane Potential Kit. […] The comparison of variance in the response of drug administration in CT and AM was represented by the percentage of changes based on their baseline values respectively.
FluoVolt™ Membrane Potential Kit (ThermoFisher […], F10488, Massachusetts, United States) was used to measure membrane potentials. The basic procedure was performed in accordance with the manufacturer’s instructions. […] MP were recorded at excitation and emission stages at wavelengths of 470 and 540 nm, respectively. […] Stock solutions of the test compounds were prepared in 100% DMSO, and serially diluted 1/40 into compound plates for testing (0.5% DMSO was the maximum concentration in all wells). The compounds were automatically pipetted from the compound plate, and 12 μL was loaded in the wells already containing the cells with 48 μL of media. Recording data were analyzed using Waveform Analysis of Cardiomyocyte Software (Ver.1.2.1J, Hamamatsu Photonics K.K.). Data values for a well were averaged from waveforms that arose during 30 s. The beat rate (BR; beats per minute), waveform amplitude (AMP), and duration at 30, 50, and 80% of decay (PWD30, PWD 50, and PWD 80, respectively) were used as evaluation parameters. PWDs were corrected using the Fridericia formula. PWD30-80 was calculated as the difference between PWD80 and PWD30. Each parameter was calculated as percentage change (%) from the value before test compound addition.

SMILES: Cc1cccc(CCN2CCC(C(=O)c3ccc(NS(C)(=O)=O)cc3)CC2)n1 [E-4031]
- EAD / irregular beating (in words): EAD was elicited; also recorded: increased the incidence of EAD in a dose-dependent manner
- incidence of arrhythmia-like waveforms: EAD (0.01 μM): 50%
- incidence of arrhythmia-like waveforms: EAD (0.03 μM): 83%
- incidence of arrhythmia-like waveforms: EAD (0.1 μM): 83%

— article PMC8369502, “High-Throughput Drug Screening System Based on Human Induced Pluripotent Stem Cell-Derived Atrial Myocytes ∼ A Novel Platform to Detect Cardiac Toxicity for Atrial Arrhythmias” (Frontiers in Pharmacology, 2021)
